Laboratory results as given in patent US20030125363A1, “Riluzole and alpha-tocopherol combination” (priority 1998, published 2003).

System: patients suffering from ALS
Conditions: fatigability

Nc1nc2ccc(OC(F)(F)F)cc2s1 [RILUZOLE AND PLACEBO, 2-amino-6-trifluoromethoxybenzothiazole]
Δ M0-M3 (VAS) (change of mean value between inclusion and 3 months): 17.3 mm | VAS at M3 (mean value, at 3 months): 65.7 mm | VAS at M0 (mean value, baseline at inclusion M0): 48.4 mm
